Assay results reported in the supplement of paper PMC10849652.
The other results are listed elsewhere or left out.

Protein sequences, listed by entry. Tags and fused reporters are not part of them. Lines headed by an entry give the natural chain unless they say otherwise; changes in a name come on top.
UniProt Q9H0A8, whole entry, looked up: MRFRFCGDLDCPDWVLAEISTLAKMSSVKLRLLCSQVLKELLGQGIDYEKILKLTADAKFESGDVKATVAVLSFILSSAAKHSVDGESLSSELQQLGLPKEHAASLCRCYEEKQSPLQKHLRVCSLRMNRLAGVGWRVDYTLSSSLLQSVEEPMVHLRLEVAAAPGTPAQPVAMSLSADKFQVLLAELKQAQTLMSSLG
UniProt P02511: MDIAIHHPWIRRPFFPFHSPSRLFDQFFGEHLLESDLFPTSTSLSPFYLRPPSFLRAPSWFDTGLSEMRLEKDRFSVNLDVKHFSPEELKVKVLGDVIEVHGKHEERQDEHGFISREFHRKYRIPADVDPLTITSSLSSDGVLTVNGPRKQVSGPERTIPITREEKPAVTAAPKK
UniProt Q9NZJ6: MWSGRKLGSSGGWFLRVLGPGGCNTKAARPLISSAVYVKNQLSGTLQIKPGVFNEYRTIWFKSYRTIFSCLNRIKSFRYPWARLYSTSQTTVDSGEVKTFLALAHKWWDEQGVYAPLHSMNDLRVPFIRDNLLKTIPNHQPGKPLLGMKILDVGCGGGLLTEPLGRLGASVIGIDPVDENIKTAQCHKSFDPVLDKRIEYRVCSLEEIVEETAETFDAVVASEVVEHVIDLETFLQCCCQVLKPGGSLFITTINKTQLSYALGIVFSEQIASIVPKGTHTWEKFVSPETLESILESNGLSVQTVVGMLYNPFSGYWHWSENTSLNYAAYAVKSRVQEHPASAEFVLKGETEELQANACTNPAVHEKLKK
UniProt O75976: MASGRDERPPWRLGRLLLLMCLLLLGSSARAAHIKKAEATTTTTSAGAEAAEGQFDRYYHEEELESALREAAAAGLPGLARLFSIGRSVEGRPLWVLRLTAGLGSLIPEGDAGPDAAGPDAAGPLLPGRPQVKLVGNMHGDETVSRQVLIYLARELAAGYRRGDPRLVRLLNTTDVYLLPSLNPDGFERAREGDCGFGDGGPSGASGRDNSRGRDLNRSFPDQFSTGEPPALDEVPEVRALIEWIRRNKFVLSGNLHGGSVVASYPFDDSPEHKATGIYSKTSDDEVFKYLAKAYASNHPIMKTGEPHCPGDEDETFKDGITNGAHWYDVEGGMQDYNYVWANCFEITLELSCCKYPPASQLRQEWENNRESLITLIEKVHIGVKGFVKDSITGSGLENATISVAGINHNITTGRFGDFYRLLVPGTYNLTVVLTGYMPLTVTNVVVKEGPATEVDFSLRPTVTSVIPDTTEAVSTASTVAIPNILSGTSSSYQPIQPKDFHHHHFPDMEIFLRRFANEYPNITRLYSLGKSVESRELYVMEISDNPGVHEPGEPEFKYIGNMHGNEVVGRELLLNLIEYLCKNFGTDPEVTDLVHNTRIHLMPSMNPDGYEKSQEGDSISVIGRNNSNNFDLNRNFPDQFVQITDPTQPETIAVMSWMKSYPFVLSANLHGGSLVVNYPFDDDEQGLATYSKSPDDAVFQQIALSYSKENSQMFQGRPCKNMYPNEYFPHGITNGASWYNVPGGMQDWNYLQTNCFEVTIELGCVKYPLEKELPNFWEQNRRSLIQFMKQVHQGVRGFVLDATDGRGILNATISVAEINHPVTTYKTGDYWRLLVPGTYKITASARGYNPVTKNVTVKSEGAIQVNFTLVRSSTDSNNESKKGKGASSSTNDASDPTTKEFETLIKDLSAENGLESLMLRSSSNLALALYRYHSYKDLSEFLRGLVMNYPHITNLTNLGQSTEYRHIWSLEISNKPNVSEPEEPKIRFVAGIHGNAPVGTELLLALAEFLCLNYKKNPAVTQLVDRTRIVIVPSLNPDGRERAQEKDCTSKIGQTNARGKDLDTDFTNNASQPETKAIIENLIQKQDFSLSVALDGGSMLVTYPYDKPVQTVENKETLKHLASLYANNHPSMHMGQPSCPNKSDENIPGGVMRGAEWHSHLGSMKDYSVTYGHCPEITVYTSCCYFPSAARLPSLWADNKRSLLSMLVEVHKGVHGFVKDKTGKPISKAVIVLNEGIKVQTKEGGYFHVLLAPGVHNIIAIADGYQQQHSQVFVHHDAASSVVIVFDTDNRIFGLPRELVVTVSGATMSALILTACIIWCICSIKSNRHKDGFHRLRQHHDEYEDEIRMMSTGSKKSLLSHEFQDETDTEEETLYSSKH
UniProt P35606: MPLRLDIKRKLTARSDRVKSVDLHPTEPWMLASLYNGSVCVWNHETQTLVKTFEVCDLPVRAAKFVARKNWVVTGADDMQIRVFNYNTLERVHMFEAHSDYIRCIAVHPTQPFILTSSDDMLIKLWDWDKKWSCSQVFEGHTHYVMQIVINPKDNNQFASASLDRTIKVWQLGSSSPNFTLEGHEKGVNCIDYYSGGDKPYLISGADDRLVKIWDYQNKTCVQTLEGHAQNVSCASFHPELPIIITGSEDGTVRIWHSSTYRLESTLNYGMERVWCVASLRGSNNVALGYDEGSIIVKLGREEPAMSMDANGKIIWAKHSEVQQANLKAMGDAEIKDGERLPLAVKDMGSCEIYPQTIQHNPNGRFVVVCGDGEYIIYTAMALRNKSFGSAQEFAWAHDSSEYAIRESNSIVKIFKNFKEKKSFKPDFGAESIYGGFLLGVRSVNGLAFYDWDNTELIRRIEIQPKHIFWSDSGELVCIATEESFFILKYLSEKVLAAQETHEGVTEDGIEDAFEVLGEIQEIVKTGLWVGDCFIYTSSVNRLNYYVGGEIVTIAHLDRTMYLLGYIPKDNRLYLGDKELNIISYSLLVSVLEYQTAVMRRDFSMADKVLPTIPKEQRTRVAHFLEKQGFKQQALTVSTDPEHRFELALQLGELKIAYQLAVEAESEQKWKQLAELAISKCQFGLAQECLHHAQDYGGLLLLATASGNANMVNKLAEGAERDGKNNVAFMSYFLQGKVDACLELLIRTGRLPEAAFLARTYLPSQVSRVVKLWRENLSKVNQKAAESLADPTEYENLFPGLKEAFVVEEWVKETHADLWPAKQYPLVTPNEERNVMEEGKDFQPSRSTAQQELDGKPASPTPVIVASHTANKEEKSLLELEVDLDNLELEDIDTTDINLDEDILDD
UniProt Q5TZA2: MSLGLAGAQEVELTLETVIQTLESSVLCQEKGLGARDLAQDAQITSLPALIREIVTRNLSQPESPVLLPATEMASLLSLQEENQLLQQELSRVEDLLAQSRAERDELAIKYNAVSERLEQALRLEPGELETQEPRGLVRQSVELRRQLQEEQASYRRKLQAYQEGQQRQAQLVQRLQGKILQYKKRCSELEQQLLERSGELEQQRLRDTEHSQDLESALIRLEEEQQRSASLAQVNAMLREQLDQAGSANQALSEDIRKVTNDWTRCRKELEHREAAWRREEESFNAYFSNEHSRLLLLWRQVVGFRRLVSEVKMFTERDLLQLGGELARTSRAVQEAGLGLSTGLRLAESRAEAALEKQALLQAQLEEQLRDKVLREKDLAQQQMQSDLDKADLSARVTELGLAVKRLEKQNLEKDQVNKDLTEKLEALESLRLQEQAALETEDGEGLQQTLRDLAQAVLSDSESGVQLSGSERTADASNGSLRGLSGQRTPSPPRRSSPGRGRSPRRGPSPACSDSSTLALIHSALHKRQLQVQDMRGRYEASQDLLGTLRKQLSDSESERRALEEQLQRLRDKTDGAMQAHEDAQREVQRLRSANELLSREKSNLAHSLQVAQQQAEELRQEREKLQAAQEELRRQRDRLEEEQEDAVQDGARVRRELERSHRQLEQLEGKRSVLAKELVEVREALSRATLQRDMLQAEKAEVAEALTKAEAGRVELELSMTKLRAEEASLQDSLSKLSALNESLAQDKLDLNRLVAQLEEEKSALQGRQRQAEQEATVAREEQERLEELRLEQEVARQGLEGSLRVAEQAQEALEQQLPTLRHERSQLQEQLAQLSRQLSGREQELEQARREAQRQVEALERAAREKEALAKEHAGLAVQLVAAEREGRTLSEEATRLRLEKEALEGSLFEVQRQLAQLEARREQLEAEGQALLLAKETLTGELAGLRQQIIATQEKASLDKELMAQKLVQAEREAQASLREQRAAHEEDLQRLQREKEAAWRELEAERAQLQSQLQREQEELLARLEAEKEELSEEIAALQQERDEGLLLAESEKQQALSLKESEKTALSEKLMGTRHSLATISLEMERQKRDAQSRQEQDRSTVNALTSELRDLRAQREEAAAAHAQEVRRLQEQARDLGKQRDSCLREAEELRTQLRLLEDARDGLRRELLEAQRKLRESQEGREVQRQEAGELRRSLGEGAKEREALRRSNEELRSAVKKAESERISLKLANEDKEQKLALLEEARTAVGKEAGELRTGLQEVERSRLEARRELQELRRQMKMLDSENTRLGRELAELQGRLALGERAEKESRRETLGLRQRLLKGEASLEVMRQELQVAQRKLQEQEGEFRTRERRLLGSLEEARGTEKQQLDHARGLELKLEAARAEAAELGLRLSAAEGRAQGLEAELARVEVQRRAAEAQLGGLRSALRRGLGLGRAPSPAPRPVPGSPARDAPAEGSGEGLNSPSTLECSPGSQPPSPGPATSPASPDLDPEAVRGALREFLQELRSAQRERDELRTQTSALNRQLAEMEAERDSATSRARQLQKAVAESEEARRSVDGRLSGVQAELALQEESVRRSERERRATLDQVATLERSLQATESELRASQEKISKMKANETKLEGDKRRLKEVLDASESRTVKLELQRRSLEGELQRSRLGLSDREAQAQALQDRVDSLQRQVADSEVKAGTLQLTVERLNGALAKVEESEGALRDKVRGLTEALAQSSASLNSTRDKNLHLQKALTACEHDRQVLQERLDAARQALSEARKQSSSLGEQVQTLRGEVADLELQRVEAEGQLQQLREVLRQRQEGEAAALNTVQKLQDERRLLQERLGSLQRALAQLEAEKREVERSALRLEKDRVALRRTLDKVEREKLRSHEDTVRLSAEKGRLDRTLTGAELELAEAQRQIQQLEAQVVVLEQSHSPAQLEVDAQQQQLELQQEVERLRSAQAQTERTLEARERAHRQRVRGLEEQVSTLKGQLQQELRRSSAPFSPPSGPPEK
UniProt Q10570: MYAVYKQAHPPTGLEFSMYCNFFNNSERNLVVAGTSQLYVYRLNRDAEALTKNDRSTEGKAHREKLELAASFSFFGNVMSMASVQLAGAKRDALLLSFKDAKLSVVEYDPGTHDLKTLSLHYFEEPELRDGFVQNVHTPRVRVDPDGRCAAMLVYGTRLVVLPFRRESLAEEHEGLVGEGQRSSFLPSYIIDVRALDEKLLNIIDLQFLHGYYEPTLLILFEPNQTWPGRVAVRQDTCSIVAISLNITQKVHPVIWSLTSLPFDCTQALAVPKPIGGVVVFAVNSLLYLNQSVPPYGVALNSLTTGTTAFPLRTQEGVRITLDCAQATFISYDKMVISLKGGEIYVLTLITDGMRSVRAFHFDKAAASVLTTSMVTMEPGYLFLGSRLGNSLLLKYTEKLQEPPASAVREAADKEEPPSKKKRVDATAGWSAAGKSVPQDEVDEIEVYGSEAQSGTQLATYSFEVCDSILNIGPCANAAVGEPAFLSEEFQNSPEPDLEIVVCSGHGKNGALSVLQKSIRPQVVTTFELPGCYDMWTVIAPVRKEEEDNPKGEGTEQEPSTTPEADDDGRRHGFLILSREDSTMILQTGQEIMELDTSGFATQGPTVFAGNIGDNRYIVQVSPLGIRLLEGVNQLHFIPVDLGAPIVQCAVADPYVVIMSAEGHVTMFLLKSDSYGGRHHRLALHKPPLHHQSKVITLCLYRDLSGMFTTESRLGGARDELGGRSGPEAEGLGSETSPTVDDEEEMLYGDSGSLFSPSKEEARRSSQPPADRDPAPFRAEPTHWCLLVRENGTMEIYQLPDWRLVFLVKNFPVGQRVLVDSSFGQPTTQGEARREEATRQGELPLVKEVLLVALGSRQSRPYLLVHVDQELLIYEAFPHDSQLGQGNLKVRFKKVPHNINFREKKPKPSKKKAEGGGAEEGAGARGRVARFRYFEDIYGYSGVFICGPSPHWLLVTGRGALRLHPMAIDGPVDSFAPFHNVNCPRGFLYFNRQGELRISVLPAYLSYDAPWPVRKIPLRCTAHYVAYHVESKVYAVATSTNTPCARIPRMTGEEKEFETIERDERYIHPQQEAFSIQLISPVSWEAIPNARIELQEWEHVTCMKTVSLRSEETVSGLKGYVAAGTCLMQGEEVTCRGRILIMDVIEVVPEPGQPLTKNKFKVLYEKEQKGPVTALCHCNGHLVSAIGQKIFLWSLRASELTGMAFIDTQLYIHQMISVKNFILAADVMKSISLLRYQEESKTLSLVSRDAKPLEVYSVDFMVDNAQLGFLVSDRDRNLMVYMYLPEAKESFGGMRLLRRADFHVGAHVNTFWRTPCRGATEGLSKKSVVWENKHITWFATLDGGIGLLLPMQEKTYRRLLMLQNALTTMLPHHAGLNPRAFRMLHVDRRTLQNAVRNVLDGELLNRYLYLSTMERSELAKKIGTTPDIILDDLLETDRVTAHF

Legend:
Experiment in all cases: log2 fold change, soluble protein after heating vs DMSO (PISA); higher = thermal stabilisation; K562 cells, 10 uM, 30 min; active = over 0.2 and 3.5 SD of the protein, either way, in both replicates (recomputed)
saracatinib = compound: CN1CCN(CCOc2cc(OC3CCOCC3)c3c(Nc4c(Cl)ccc5c4OCO5)ncnc3c2)CC1 [saracatinib]
Summary of the method: (§1)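 K562 cells (2×10^6 cells/mL) were treated with 10 μM compound for 30 min, and aliquots were heated for 3 min over 48°C-58°C. Pooled aliquots were extracted in PBS with 0.5% NP-40 at 4°C, and the supernatant after 21,000xg for 90 min was measured by TMTpro 16plex LC-MS/MS with channel sums equalised. Reported thermal stability, relative to control samples and from duplicates, is a log2 fold change.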

sotrastaurin = compound: CN1CCN(c2nc(C3=C(c4c[nH]c5ccccc45)C(=O)NC3=O)c3ccccc3n2)CC1 [sotrastaurin]
Summary of the method: as §1

alvocidib = compound: CN1CC[C@H](c2c(O)cc(O)c3c(=O)cc(-c4ccccc4Cl)oc23)[C@H](O)C1 [alvocidib]
Summary of the method: as §1

Tubastatin A = compound: CN1CCc2c(c3ccccc3n2Cc2ccc(C(=O)NO)cc2)C1 [Tubastatin A]
Summary of the method: as §1

[1] = compound: CNC(=O)C1=CC=CC=C1NC2=NC(=NC=C2Cl)NC3=C(C=C(C=C3)N4CCOCC4)OC
Summary of the method: as §1

defactinib = compound: CNC(=O)c1ccc(Nc2ncc(C(F)(F)F)c(NCc3nccnc3N(C)S(C)(=O)=O)n2)cc1 [defactinib]
Summary of the method: as §1

rucaparib = compound: CNCc1ccc(-c2[nH]c3cc(F)cc4c3c2CCNC4=O)cc1 [rucaparib]
Summary of the method: as §1

[2] = compound: CNc1nc(-c2ccc3c(N)n[nH]c3c2)cc(N2C[C@@H](C(=O)NC3CCCCC3)CC[C@H]2C)n1
Summary of the method: as §1

encorafenib = compound: COC(=O)N[C@@H](C)CNc1nccc(-c2cn(C(C)C)nc2-c2cc(Cl)cc(NS(C)(=O)=O)c2F)n1 [encorafenib]
Summary of the method: as §1

[3] = compound: COC(=O)[C@H](CCSC)NC(=O)C1=C(C=C(C=C1)NC[C@H](CS)N)C2=CC=CC=C2
Summary of the method: as §1

[4] = compound: COC1=CC=C(C=C1)CN2C=CC3=C2C=C(C=C3)C(=O)NO
Summary of the method: as §1

filanesib = compound: CON(C)C(=O)N1N=C(c2cc(F)ccc2F)S[C@@]1(CCCN)c1ccccc1 [filanesib]
Summary of the method: as §1

zotarolimus = compound: CO[C@H]1C[C@@H]2CC[C@@H](C)[C@@](O)(O2)C(=O)C(=O)N2CCCC[C@H]2C(=O)O[C@H]([C@H](C)C[C@@H]2CC[C@H](n3cnnn3)[C@H](OC)C2)CC(=O)[C@H](C)/C=C(\C)[C@@H](O)[C@@H](OC)C(=O)[C@H](C)C[C@H](C)/C=C/C=C/C=C/1C [zotarolimus]
Summary of the method: as §1

idasanutlin = compound: COc1cc(C(=O)O)ccc1NC(=O)[C@@H]1N[C@@H](CC(C)(C)C)[C@](C#N)(c2ccc(Cl)cc2F)[C@H]1c1cccc(Cl)c1F [idasanutlin]
Summary of the method: as §1

alisertib = compound: COc1cc(Nc2ncc3c(n2)-c2ccc(Cl)cc2C(c2c(F)cccc2OC)=NC3)ccc1C(=O)O [alisertib]
Summary of the method: as §1

[5] = compound: COc1cc2nc(-c3cc(F)ccc3O)nc(N[C@@H]3CNC[C@H]3C(C)(C)O)c2cc1OC
Summary of the method: as §1

gefitinib = compound: COc1cc2ncnc(Nc3ccc(F)c(Cl)c3)c2cc1OCCCN1CCOCC1 [gefitinib]
Summary of the method: as §1

[6] = compound: COc1cccc2cc(-c3nc([C@H]4CC[C@H](C(=O)O)CC4)n4ncnc(N)c34)[nH]c12
Summary of the method: as §1

lapatinib = compound: CS(=O)(=O)CCNCc1ccc(-c2ccc3ncnc(Nc4ccc(OCc5cccc(F)c5)c(Cl)c4)c3c2)o1 [lapatinib]
Summary of the method: as §1

pictilisib = compound: CS(=O)(=O)N1CCN(Cc2cc3nc(-c4cccc5[nH]ncc45)nc(N4CCOCC4)c3s2)CC1 [pictilisib]
Summary of the method: as §1

Measured: log2 fold change

CRELD1 isoform 2 (UniProt Q96HD1)
inactive: saracatinib 0.038 | sotrastaurin 0.014 | alvocidib -0.003 | Tubastatin A -0.025 | [1] -0.046 | defactinib 0.012 | rucaparib -0.134 | [2] -0.053 | encorafenib 0.099 | [3] 0.082 | [4] -0.136 | filanesib -0.026 | zotarolimus -0.099 | idasanutlin 0.016 | alisertib 0.505 | [5] -0.027 | gefitinib 0.381 | [6] 0.157 | lapatinib -0.006 | pictilisib 0.113

CREBBP (UniProt Q92793)
inactive: saracatinib 0.006 | sotrastaurin -0.007 | alvocidib -0.045 | Tubastatin A 0.028 | [1] -0.009 | defactinib -0.069 | rucaparib -0.034 | [2] -0.001 | encorafenib 0.021 | [3] -0.038 | [4] 0.025 | filanesib 0.003 | zotarolimus 0.017 | idasanutlin -0.04 | alisertib -0.023 | [5] 0.035 | gefitinib 0.063 | [6] 0.017 | lapatinib 0.02 | pictilisib 0.038

COPG1 (UniProt Q9Y678)
inactive: saracatinib 0.011 | sotrastaurin -0.026 | alvocidib -0.034 | Tubastatin A -0.031 | [1] 0.029 | defactinib -0.017 | rucaparib -0.012 | [2] 0.019 | encorafenib 0.049 | [3] -0.013 | [4] 0.076 | filanesib 0 | zotarolimus 0.015 | idasanutlin -0.035 | alisertib -0.039 | [5] 0.067 | gefitinib 0.031 | [6] -0.016 | lapatinib -0.006 | pictilisib -0.018

COPZ1 isoform 4 (UniProt P61923)
inactive: saracatinib -0.042 | sotrastaurin 0.086 | alvocidib -0.056 | Tubastatin A 0.082 | [1] 0.089 | defactinib 0.017 | rucaparib -0.063 | [2] -0.004 | encorafenib 0.007 | [3] 0.028 | [4] -0.16 | filanesib 0.034 | zotarolimus 0.099 | idasanutlin -0.061 | alisertib 0.002 | [5] -0.019 | gefitinib 0.052 | [6] -0.002 | lapatinib -0.055 | pictilisib -0.084

CSDE1 isoform 4 (UniProt O75534)
inactive: saracatinib -0.101 | sotrastaurin -0.262 | alvocidib 0.13 | Tubastatin A 0.097 | [1] 0.004 | defactinib 0.052 | rucaparib 0.406 | [2] 0.117 | encorafenib 0.214 | [3] -0.078 | [4] 0.031 | filanesib 0.206 | zotarolimus 0.077 | idasanutlin 0.152 | alisertib -0.008 | [5] -0.056 | gefitinib 0.03 | [6] -0.284 | lapatinib 0.045 | pictilisib -0.022

CPED1 (UniProt A4D0V7)
inactive: saracatinib -0.163 | sotrastaurin -0.021 | alvocidib -0.011 | Tubastatin A 0.039 | [1] 0.027 | defactinib -0.004 | rucaparib 0.161 | [2] 0.042 | encorafenib 0.209 | [3] -0.005 | [4] -0.059 | filanesib 0.175 | zotarolimus -0.004 | idasanutlin 0.09 | alisertib -0.018 | [5] -0.02 | gefitinib 0.08 | [6] -0.051 | lapatinib 0.139 | pictilisib -0.051

COMMD4 (UniProt Q9H0A8)
inactive: saracatinib 0.036 | sotrastaurin -0.048 | alvocidib -0.175 | Tubastatin A 0.045 | [1] -0.055 | defactinib -0.076 | rucaparib 0.024 | [2] -0.008 | encorafenib 0.079 | [3] -0.052 | [4] 0.272 | filanesib 0.031 | zotarolimus -0.058 | idasanutlin -0.049 | alisertib -0.011 | gefitinib 0.013 | [6] 0.003 | pictilisib 0.136

CRYAB (UniProt P02511)
inactive: saracatinib -0.091 | sotrastaurin 0.036 | alvocidib 0.142 | defactinib -0.092 | rucaparib 0.072 | [2] 0 | encorafenib -0.049 | [3] -0.085 | [4] -0.129 | filanesib 0.39 | zotarolimus -0.186 | idasanutlin 0.176

CS (UniProt O75390)
inactive: saracatinib -0.001 | sotrastaurin 0.02 | Tubastatin A -0.015 | [1] 0.011 | defactinib -0.069 | rucaparib 0.022 | [2] -0.055 | encorafenib -0.042 | [3] -0.002 | [4] 0.012 | filanesib -0.172 | zotarolimus 0.011 | idasanutlin -0.033 | alisertib -0.013 | [5] -0.139 | gefitinib 0.041 | [6] 0.059 | lapatinib -0.027 | pictilisib 0.099

CRCP (UniProt O75575)
inactive: saracatinib 0.015 | sotrastaurin -0.001 | alvocidib 0.007 | Tubastatin A 0.165 | rucaparib -0.055 | [2] -0.1 | encorafenib -0.04 | [4] 0.031 | filanesib 0.036 | zotarolimus 0.054 | alisertib -0.189 | [5] -0.039 | gefitinib 0 | [6] 0.068 | lapatinib 0.038 | pictilisib 0.009

CRYZL1 (UniProt O95825)
inactive: saracatinib 0.032 | sotrastaurin 0.039 | alvocidib 0.008 | Tubastatin A -0.027 | [1] -0.028 | defactinib -0.014 | rucaparib -0.048 | [2] -0.021 | encorafenib -0.043 | [3] 0.015 | [4] -0.018 | filanesib -0.061 | zotarolimus -0.011 | idasanutlin -0.05 | alisertib -0.025 | [5] 0.035 | gefitinib -0.034 | [6] 0.052 | lapatinib -0.015 | pictilisib 0.053

COQ3 (UniProt Q9NZJ6)
inactive: saracatinib -0.006 | sotrastaurin 0.111 | alvocidib -0.063 | Tubastatin A -0.117 | [1] 0.045 | defactinib 0.017 | rucaparib -0.062 | [2] 0.036 | encorafenib -0.032 | [3] -0.021 | [4] -0.008 | filanesib -0.184 | zotarolimus -0.017 | idasanutlin -0.055 | alisertib -0.062 | [5] -0.03 | gefitinib 0.042 | [6] 0.066 | lapatinib 0.053 | pictilisib 0.026

CPD (UniProt O75976)
inactive: saracatinib -0.047 | sotrastaurin -0.011 | Tubastatin A 0.03 | [1] -0.002 | defactinib -0.026 | rucaparib 0.017 | [2] -0.006 | encorafenib 0.042 | [3] 0.012 | [4] 0.022 | filanesib 0.082 | zotarolimus -0.045 | idasanutlin -0.005 | alisertib -0.038 | [5] 0.046 | gefitinib 0.007 | [6] 0.015 | lapatinib -0.01 | pictilisib 0.034

CSNK1G3 (UniProt Q9Y6M4)
inactive: saracatinib -0.06 | sotrastaurin -0.131 | alvocidib 0.151 | Tubastatin A 0.08 | [1] 0.004 | defactinib 0.065 | rucaparib 0.102 | [2] -0.055 | encorafenib 0.131 | [3] -0.006 | [4] 0.117 | filanesib -0.084 | zotarolimus -0.039 | idasanutlin 0.067 | alisertib -0.115 | [5] -0.093 | gefitinib -0.016 | [6] -0.088 | lapatinib 0.024 | pictilisib 0.035

COPB2 (UniProt P35606)
inactive: saracatinib 0.024 | sotrastaurin 0.008 | alvocidib -0.024 | Tubastatin A 0.01 | [1] 0.019 | defactinib -0.04 | rucaparib 0.005 | [2] 0.007 | encorafenib 0.027 | [3] -0.011 | [4] 0.003 | filanesib 0.024 | zotarolimus 0.024 | idasanutlin -0.023 | alisertib -0.039 | [5] 0.085 | gefitinib 0.023 | [6] 0.003 | lapatinib 0.008 | pictilisib -0.012

Quoted from the entries so far (2 entries):
CRYZL1 (UniProt O95825)
inactive: saracatinib 0.032 | sotrastaurin 0.039 | alvocidib 0.008 | Tubastatin A -0.027 | [1] -0.028 | defactinib -0.014 | rucaparib -0.048 | [2] -0.021 | encorafenib -0.043 | [3] 0.015 | [4] -0.018 | filanesib -0.061 | zotarolimus -0.011 | idasanutlin -0.05 | alisertib -0.025 | [5] 0.035 | gefitinib -0.034 | [6] 0.052 | lapatinib -0.015 | pictilisib 0.053

COQ3 (UniProt Q9NZJ6)
inactive: saracatinib -0.006 | sotrastaurin 0.111 | alvocidib -0.063 | Tubastatin A -0.117 | [1] 0.045 | defactinib 0.017 | rucaparib -0.062 | [2] 0.036 | encorafenib -0.032 | [3] -0.021 | [4] -0.008 | filanesib -0.184 | zotarolimus -0.017 | idasanutlin -0.055 | alisertib -0.062 | [5] -0.03 | gefitinib 0.042 | [6] 0.066 | lapatinib 0.053 | pictilisib 0.026

Continuation:

CROCC (UniProt Q5TZA2)
inactive: saracatinib -0.018 | sotrastaurin -0.007 | alvocidib -0.062 | Tubastatin A -0.042 | [1] 0.097 | defactinib 0.032 | rucaparib -0.154 | [2] -0.033 | encorafenib -0.005 | [3] -0.018 | [4] -0.091 | filanesib -0.132 | zotarolimus 0.037 | idasanutlin -0.015 | alisertib -0.001 | [5] 0.156 | gefitinib 0.078 | [6] -0.061 | lapatinib -0.038 | pictilisib 0.022

CPSF1 (UniProt Q10570)
inactive: saracatinib 0.024 | sotrastaurin -0.01 | Tubastatin A -0.02 | [1] -0.05 | defactinib 0.038 | rucaparib 0.018 | [2] -0.061 | encorafenib -0.048 | [3] -0.032 | [4] -0.042 | filanesib 0.164 | zotarolimus 0.095 | idasanutlin 0.053 | alisertib -0.08 | [5] 0.02 | gefitinib -0.079 | [6] 0.01 | lapatinib 0.029 | pictilisib -0.058
